Experimental data taken from publication PMC6207756.
Results are given in words; binding and its absence hold for the method and conditions named. Binding seen in cells or lysates may run through a third protein. Some results given as binding are weak or reduced against the parent protein; the word gives no strength.

Protein sequences, listed by entry. Tags and fused reporters are not part of them. Residues count along the entry.
UniProt P0CG63, residues 1-74: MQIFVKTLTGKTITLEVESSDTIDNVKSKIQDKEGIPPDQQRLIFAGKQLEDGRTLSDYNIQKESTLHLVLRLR

Target: Strep-Ub-alkyne (S. cerevisiae) (UniProt P0CG63)
Test: pull-down; magnetic Strep-Tactin XT beads coupled with purified Strep-Ub-alkyne (4.6 µg), H6-PEX5-Ub-Strep (14 µg) or H6-BRD4-GFP-Strep (14 µg); 35S-labelled in vitro translation products added in buffer C with 2 mM ATP and 4 mM MgCl2; eluted with 50 mM biotin; autoradiography; only the target purified

Row | binding | Binder
1 | binds weakly | ^35S-PEX1 (enzyme, UniProt O43933 1-1283) MWGSDRLAGAGGGGAAVTVAFTNARDCFLHLPRRLVAQLHLLQNQAIEVVWSHQPAFLSWVEGRHFSDQGENVAEINRQVGQKLGLSNGGQVFLKPCSHVVSCQQVEVEPLSADDWEILELHAVSLEQHLLDQIRIVFPKAIFPVWVDQQTYIFIQIVALIPAASYGRLETDTKLLIQPKTRRAKENTFSKADAEYKKLHSYGRDQKGMMKELQTKQLQSNTVGITESNENESEIPVDSSSVASLWTMIGSIFSFQSEKKQETSWGLTEINAFKNMQSKVVPLDNIFRVCKSQPPSIYNASATSVFHKHCAIHVFPWDQEYFDVEPSFTVTYGKLVKLLSPKQQQSKTKQNVLSPEKEKQMSEPLDQKKIRSDHNEEDEKACVLQVVWNGLEELNNAIKYTKNVEVLHLGKVWIPDDLRKRLNIEMHAVVRITPVEVTPKIPRSLKLQPRENLPKDISEEDIKTVFYSWLQQSTTTMLPLVISEEEFIKLETKDGLKEFSLSIVHSWEKEKDKNIFLLSPNLLQKTTIQVLLDPMVKEENSEEIDFILPFLKLSSLGGVNSLGVSSLEHITHSLLGRPLSRQLMSLVAGLRNGALLLTGGKGSGKSTLAKAICKEAFDKLDAHVERVDCKALRGKRLENIQKTLEVAFSEAVWMQPSVVLLDDLDLIAGLPAVPEHEHSPDAVQSQRLAHALNDMIKEFISMGSLVALIATSQSQQSLHPLLVSAQGVHIFQCVQHIQPPNQEQRCEILCNVIKNKLDCDINKFTDLDLQHVAKETGGFVARDFTVLVDRAIHSRLSRQSISTREKLVLTTLDFQKALRGFLPASLRSVNLHKPRDLGWDKIGGLHEVRQILMDTIQLPAKYPELFANLPIRQRTGILLYGPPGTGKTLLAGVIARESRMNFISVKGPELLSKYIGASEQAVRDIFIRAQAAKPCILFFDEFESIAPRRGHDNTGVTDRVVNQLLTQLDGVEGLQGVYVLAATSRPDLIDPALLRPGRLDKCVYCPPPDQVSRLEILNVLSDSLPLADDVDLQHVASVTDSFTGADLKALLYNAQLEALHGMLLSSGLQDGSSSSDSDLSLSSMVFLNHSSGSDDSAGDGECGLDQSLVSLEMSEILPDESKFNMYRLYFGSSYESELGNGTSSDLSSQCLSAPSSMTQDLPGVPGKDQLFSQPPVLRTASQEGCQELTQEQRDQLRADISIIKGRYRSQSGEDESMNQPGPIKTRLAISQSHLMTALGHTRPSISEDDWKNFAELYESFQNPKRRKNQSGTMFRPGQKVTLA
2 | binds weakly | ^35S-PEX6 (enzyme, UniProt Q13608 1-980) MALAVLRVLEPFPTETPPLAVLLPPGGPWPAAELGLVLALRPAGESPAGPALLVAALEGPDAGTEEQGPGPPQLLVSRALLRLLALGSGAWVRARAVRRPPALGWALLGTSLGPGLGPRVGPLLVRRGETLPVPGPRVLETRPALQGLLGPGTRLAVTELRGRARLCPESGDSSRPPPPPVVSSFAVSGTVRRLQGVLGGTGDSLGVSRSCLRGLGLFQGEWVWVAQARESSNTSQPHLARVQVLEPRWDLSDRLGPGSGPLGEPLADGLALVPATLAFNLGCDPLEMGELRIQRYLEGSIAPEDKGSCSLLPGPPFARELHIEIVSSPHYSTNGNYDGVLYRHFQIPRVVQEGDVLCVPTIGQVEILEGSPEKLPRWREMFFKVKKTVGEAPDGPASAYLADTTHTSLYMVGSTLSPVPWLPSEESTLWSSLSPPGLEALVSELCAVLKPRLQPGGALLTGTSSVLLRGPPGCGKTTVVAAACSHLGLHLLKVPCSSLCAESSGAVETKLQAIFSRARRCRPAVLLLTAVDLLGRDRDGLGEDARVMAVLRHLLLNEDPLNSCPPLMVVATTSRAQDLPADVQTAFPHELEVPALSEGQRLSILRALTAHLPLGQEVNLAQLARRCAGFVVGDLYALLTHSSRAACTRIKNSGLAGGLTEEDEGELCAAGFPLLAEDFGQALEQLQTAHSQAVGAPKIPSVSWHDVGGLQEVKKEILETIQLPLEHPELLSLGLRRSGLLLHGPPGTGKTLLAKAVATECSLTFLSVKGPELINMYVGQSEENVREVFARARAAAPCIIFFDELDSLAPSRGRSGDSGGVMDRVVSQLLAELDGLHSTQDVFVIGATNRPDLLDPALLRPGRFDKLVFVGANEDRASQLRVLSAITRKFKLEPSVSLVNVLDCCPPQLTGADLYSLCSDAMTAALKRRVHDLEEGLEPGSSALMLTMEDLLQAAARLQPSVSEQELLRYKRIQRKFAAC
